Structures can show the parent of a compound that is named as a salt. The list shows a part of the results. The calls rarely recur for the same compound in another form.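 Kinases, fused to nanoluciferase, were expressed in K562 cells; luminescence was measured every 4 h from 2 to 18 h as percent of control (DMSO = 100%, positive control = 0%). A time point is decreased if signal falls significantly (2 sigma). Hits were called by the authors by a rule that is not shown; the count of time points alone does not decide it.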
Tests used:
Test in all cases: number of time points (of 5) at which kinase-Nluc abundance scored as decreased, DMSO-normalised (count); higher = more persistent destabilization
Settings in all cases: K562; 2-18 h
[1] = target: ROR2 (UniProt Q01974)
[2] = target: RPS6KA1 (UniProt Q15418)
[3] = target: SPHK1 (UniProt Q9NYA1)
[4] = target: SRC (UniProt P12931)
[5] = target: STK24 (UniProt Q9Y6E0)
[6] = target: STK38 (UniProt Q15208)
[7] = target: SYK (UniProt P43405)
[8] = target: TEC (UniProt P42680)
[9] = target: TYK2 (UniProt P29597)
[10] = target: ULK3 (UniProt Q6PHR2)

Protein sequences, listed by entry. Tags and fused reporters are not part of them. Lines headed by an entry give the natural chain unless they say otherwise; changes in a name come on top.
UniProt Q01974, whole entry: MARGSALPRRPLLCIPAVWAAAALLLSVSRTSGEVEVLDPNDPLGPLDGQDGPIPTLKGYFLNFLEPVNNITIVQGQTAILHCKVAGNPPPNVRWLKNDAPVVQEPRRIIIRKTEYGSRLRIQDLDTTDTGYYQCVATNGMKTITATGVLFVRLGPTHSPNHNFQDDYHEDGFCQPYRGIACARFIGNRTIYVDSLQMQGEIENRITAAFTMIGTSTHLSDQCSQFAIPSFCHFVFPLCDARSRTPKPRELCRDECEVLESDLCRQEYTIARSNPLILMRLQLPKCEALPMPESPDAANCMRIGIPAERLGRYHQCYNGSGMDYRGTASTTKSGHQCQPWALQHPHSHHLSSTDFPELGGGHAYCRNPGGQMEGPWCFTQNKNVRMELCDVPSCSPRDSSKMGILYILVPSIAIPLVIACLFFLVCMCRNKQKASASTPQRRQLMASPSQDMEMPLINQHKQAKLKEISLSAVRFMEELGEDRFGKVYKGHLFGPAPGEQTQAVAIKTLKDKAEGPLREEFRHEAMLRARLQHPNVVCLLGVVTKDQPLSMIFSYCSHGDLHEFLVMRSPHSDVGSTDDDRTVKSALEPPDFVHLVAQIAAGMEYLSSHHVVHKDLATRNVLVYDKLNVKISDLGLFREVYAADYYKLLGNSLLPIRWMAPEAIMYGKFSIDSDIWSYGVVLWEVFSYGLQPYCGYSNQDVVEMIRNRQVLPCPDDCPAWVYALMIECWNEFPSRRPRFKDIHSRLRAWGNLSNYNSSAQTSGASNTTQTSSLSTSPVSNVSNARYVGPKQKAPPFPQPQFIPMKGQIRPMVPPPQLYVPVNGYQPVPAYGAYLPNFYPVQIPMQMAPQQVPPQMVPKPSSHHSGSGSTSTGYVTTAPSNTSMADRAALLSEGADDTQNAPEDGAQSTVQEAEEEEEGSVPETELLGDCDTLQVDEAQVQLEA
UniProt Q15418, whole entry: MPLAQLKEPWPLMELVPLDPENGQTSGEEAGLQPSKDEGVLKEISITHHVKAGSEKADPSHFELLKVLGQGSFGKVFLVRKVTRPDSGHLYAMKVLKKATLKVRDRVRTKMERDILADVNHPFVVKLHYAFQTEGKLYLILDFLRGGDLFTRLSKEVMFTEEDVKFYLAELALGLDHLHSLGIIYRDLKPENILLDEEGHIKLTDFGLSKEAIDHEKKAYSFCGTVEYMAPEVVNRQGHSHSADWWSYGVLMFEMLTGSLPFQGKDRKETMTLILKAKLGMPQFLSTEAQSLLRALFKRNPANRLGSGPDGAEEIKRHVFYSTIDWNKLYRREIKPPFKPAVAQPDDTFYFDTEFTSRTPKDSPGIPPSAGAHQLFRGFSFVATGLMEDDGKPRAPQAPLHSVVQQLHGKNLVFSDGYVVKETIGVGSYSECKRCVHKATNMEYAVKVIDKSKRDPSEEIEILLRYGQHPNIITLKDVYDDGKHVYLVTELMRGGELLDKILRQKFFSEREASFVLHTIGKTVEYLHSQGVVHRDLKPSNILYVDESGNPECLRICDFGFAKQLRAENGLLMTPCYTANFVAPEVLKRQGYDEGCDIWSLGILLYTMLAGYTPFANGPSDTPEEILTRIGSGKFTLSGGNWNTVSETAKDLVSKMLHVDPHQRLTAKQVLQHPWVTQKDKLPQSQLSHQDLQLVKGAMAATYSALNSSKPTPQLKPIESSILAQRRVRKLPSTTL
UniProt Q9NYA1, whole entry: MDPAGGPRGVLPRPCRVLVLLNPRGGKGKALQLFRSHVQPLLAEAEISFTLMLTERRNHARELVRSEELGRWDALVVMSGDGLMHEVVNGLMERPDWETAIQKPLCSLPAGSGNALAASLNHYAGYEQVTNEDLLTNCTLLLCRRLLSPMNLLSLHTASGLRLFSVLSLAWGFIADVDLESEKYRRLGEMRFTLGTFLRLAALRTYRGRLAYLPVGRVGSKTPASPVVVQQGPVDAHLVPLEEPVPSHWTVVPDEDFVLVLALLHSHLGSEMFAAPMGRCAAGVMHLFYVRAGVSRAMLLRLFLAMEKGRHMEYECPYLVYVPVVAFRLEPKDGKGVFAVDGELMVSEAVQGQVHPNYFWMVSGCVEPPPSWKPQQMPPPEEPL
UniProt Q9Y6E0: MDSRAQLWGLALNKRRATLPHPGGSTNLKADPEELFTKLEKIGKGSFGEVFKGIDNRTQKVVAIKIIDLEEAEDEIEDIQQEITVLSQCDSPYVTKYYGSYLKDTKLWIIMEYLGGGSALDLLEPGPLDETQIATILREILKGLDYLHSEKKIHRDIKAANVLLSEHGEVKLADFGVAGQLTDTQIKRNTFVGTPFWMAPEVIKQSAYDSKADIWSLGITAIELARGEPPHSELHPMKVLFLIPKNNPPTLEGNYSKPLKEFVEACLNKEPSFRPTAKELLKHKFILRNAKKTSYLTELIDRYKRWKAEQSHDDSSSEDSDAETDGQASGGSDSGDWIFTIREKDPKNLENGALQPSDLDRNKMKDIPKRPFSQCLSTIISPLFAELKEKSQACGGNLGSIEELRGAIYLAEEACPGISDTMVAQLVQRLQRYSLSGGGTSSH
UniProt Q15208: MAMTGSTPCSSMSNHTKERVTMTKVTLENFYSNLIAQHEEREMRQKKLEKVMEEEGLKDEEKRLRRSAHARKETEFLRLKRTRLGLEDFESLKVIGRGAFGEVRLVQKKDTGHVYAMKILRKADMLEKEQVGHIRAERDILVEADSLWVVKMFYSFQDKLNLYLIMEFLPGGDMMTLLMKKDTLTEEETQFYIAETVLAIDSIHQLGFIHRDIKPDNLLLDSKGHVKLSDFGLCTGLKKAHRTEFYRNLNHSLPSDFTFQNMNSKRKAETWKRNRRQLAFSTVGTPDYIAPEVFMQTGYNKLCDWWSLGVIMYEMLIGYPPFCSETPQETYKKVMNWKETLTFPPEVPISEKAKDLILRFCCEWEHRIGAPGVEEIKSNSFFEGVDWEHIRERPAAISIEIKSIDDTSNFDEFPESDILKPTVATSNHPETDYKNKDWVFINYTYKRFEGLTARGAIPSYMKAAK
UniProt P42680: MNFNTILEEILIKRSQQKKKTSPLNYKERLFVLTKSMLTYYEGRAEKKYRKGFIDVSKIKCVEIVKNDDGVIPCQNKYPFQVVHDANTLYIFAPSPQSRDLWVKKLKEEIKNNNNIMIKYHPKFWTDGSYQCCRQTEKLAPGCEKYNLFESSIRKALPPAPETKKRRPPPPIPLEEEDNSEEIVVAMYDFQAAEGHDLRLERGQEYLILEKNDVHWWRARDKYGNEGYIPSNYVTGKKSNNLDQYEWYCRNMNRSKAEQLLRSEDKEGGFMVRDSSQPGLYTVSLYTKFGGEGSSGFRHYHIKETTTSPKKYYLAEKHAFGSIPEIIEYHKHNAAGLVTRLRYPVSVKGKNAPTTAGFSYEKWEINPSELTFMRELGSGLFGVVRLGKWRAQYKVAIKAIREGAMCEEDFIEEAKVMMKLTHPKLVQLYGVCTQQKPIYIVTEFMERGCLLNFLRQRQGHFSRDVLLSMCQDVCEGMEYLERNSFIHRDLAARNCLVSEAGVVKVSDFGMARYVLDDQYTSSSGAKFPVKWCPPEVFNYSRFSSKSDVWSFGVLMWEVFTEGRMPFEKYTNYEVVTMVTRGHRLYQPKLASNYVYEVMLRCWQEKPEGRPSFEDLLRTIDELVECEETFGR
UniProt P29597: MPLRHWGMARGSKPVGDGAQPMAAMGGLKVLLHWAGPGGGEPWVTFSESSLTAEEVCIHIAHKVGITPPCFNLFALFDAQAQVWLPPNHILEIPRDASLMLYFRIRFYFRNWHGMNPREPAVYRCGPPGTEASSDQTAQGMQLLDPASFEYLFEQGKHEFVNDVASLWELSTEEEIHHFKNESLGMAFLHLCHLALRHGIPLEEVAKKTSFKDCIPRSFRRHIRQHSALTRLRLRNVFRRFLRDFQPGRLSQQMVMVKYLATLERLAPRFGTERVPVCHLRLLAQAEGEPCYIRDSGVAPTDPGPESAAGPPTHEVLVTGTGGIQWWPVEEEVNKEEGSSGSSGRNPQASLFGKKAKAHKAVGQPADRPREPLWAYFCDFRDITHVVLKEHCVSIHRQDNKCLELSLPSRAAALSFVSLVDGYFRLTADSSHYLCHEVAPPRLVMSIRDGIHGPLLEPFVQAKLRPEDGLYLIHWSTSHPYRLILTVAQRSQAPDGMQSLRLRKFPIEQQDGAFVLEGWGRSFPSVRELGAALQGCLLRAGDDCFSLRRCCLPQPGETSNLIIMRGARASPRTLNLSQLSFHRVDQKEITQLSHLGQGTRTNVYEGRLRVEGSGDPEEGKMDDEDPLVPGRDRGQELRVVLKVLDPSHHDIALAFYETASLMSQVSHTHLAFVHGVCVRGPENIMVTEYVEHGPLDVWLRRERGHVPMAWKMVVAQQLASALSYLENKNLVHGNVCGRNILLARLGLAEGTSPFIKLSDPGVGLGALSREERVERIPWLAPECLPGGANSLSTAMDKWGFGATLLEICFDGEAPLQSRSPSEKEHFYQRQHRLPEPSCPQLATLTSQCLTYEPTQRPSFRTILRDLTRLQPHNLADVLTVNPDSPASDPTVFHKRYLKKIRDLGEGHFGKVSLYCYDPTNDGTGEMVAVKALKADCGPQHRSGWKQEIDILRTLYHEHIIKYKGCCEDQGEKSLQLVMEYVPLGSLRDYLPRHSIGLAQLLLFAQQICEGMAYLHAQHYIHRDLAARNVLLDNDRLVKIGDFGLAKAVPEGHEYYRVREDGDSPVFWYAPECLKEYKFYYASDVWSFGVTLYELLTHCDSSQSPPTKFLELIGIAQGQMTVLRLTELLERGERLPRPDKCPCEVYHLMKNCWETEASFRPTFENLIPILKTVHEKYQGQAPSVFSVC
UniProt Q6PHR2: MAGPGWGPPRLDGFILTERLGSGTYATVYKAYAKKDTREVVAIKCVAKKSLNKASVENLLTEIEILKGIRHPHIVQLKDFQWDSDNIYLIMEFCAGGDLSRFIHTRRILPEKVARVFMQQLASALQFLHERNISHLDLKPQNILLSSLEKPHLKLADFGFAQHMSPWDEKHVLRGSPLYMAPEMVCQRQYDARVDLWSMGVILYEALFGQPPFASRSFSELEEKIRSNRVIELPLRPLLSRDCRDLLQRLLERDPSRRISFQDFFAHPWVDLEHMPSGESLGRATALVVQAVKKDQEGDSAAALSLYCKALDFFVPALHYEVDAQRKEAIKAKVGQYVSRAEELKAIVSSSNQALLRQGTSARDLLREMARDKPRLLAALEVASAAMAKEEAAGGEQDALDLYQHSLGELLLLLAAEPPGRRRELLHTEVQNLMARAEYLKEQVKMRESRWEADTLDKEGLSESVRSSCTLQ

Measured: number of time points

Nc1cc(Nc2ccc(S(N)(=O)=O)cc2)ncn1 (10 µM)
0: [1] | [2] | [3] | [4] | [5] | [6] | [7] | [8] | [9] | [10]

O=C1c2ccc(Nc3ccc(F)cc3F)cc2CCc2ccc(OC[C@H](O)CO)cc21 [Skepinone-L] (2.5 µM)
0: [1] | [2] | [3] | [4] | [5] | [6] | [7] | [8] | [9] | [10]

CC(c1ccc(-c2cnc3c(-c4ccc(S(N)(=O)=O)c5ccccc45)cnn3c2)cc1)N1CCCC1 (stereo not given) (2.5 µM)
0: [1] | [2] | [3] | [4] | [5] | [6] | [7] | [8] | [9] | [10]

CCc1cc(O)c(F)cc1-c1ccc2c(-c3nc4c([nH]3)CN(C3CCN(C)CC3)CC4)n[nH]c2c1 [JAK-IN-5 (hydrochloride)] (2 µM)
0: [1] | [2] | [3] | [4] | [5] | [6] | [7] | [8]
1: [10]
3: [9]

O=C(/C=C/c1ccc(O)c(O)c1)c1ccc(O[C@@H]2O[C@H](CO)[C@@H](O)[C@H](O)[C@H]2O)c(O)c1O [Marein] (10 µM)
0: [1] | [2] | [3] | [4] | [5] | [6] | [7] | [8] | [9] | [10]

COc1cc(F)c(F)c(Nc2ccc(I)cc2F)c1NS(=O)(=O)C1(C[C@H](O)CO)CC1 [Refametinib] (10 µM)
0: [1] | [2] | [3] | [4] | [5] | [6] | [7] | [8] | [9]
2: [10]

Cc1cc2cc(Nc3ccnc(Nc4ccc5[nH]c(C)cc5c4)n3)ccc2[nH]1 (2.5 µM)
0: [1] | [2] | [3] | [4] | [5] | [6] | [7] | [8] | [9] | [10]

Nc1nccc(Oc2ccc(NC(=O)c3cn(COP(=O)(O)O)cc(-c4ccc(F)cc4)c3=O)cc2F)c1Cl (10 µM)
0: [1] | [2] | [3] | [4] | [5] | [6] | [7] | [8] | [9]
1: [10]

O=C(O)c1cc(O)ccc1O [2,5-Dihydroxybenzoic acid] (10 µM)
0: [1] | [2] | [3] | [4] | [5] | [6] | [7] | [8] | [9] | [10]

C[C@@H]1C(=O)O[C@H](C)[C@H]1C[C@@H](O)[C@](C)(O)[C@H]1CC[C@@]2(O)C3=CC(=O)[C@@H]4C[C@@H](O)[C@@H](O)C[C@]4(C)[C@H]3CC[C@]12C [Cyasterone] (10 µM)
0: [1] | [2] | [3] | [4] | [5] | [6] | [7] | [8] | [9] | [10]

O=C1Nc2nc(-c3c(O)cccc3OCC3CC3)cc([C@@H]3CCCNC3)c2CO1 [Bay 65-1942 (hydrochloride)] (10 µM)
3: [8]
0: [1] | [2] | [3] | [4] | [5] | [6] | [7] | [9] | [10]

OC[C@H]1O[C@@H](Oc2cc3c(O)cc(O)cc3[o+]c2-c2cc(O)c(O)c(O)c2)[C@H](O)[C@@H](O)[C@@H]1O [Delphinidin 3-glucoside (chloride)] (10 µM)
0: [1] | [2] | [3] | [4] | [5] | [6] | [7] | [8] | [9] | [10]

COc1cc([N+](=O)[O-])ccc1S(=O)(=O)N1C[C@@H](CN2CCN(c3ccccn3)CC2)[C@H](c2cccc(F)c2)C1 (relative stereo) (10 µM)
0: [1] | [2] | [3] | [4] | [5] | [6] | [7] | [8] | [9] | [10]

COCCOc1ccc(-c2cn(-c3ccccc3)c3nc[nH]c(=O)c23)cc1 (10 µM)
0: [1] | [2] | [3] | [4] | [5] | [6] | [7] | [8] | [9] | [10]

NC1(Cc2ccc(Cl)cc2)CCN(c2ncnc3[nH]ccc23)CC1 (10 µM)
0: [1] | [2] | [3] | [4] | [5] | [6] | [7] | [8] | [9] | [10]

Cc1cc(-c2cc(OC(=O)c3ccccc3)ccc2Cl)cc2nnc(Nc3ccc(OCCN4CCCC4)cc3)nc12 (0.5 µM)
0: [1] | [2] | [3] | [4] | [5] | [6] | [7] | [8] | [9] | [10]

O=C(NCCO)c1ccc2c(c1)nc(Nc1cccc(Cl)c1)c1ccncc12 [CK2 inhibitor 2] (10 µM)
0: [1] | [2] | [3] | [4] | [5] | [6] | [7] | [8] | [9] | [10]

Cc1noc(C)c1-c1ccc(-c2cc(C(N)=O)c(NC(N)=O)s2)c(O[C@H]2CCNC2)c1 (10 µM)
0: [1] | [2] | [3] | [4] | [5] | [6] | [7] | [8] | [9] | [10]

COc1ccc(-c2ccc3c(N4CCOC[C@@H]4C)nc(N4CCOC[C@@H]4C)nc3n2)cc1CO (2.5 µM)
1: [7]
0: [1] | [2] | [3] | [4] | [5] | [8]
4: [9]
3: [6] | [10]

CO[C@H]1C[C@@H]2CC[C@@H](C)[C@@](O)(O2)C(=O)C(=O)N2CCCC[C@H]2C(=O)O[C@H]([C@H](C)C[C@@H]2CC[C@@H](O)[C@H](OC)C2)CC(=O)[C@H](C)/C=C(\C)[C@@H](O)[C@@H](OC)C(=O)[C@H](C)C[C@H](C)/C=C/C=C/C=C/1C [Rapamycin] (10 µM)
0: [1] | [2] | [3] | [4] | [5] | [6] | [7] | [8] | [9] | [10]

CC(C)(C)c1ccc(S(=O)(=O)Nc2ccc(-n3ccnc3)cc2)cc1 (10 µM)
0: [1] | [2] | [3] | [4] | [5] | [6] | [7] | [8] | [9] | [10]

CCn1c(-c2nonc2N)nc2cnc(Oc3cccc(NC(=O)c4ccc(OCCN5CCOCC5)cc4)c3)cc21 (10 µM)
0: [1] | [2] | [3] | [4] | [5] | [6] | [7] | [8] | [9] | [10]

CC(C)(NS(=O)(=O)c1ccc2c(Cl)cnc(N=C(N)N)c2c1)C(=O)O (10 µM)
0: [1] | [2] | [3] | [4] | [5] | [6] | [7] | [8] | [9] | [10]

COc1ccc(Cn2cc(C(=O)N=Nc3c(O)[nH]c4c(C)cccc34)nn2)cc1 [MARK4 inhibitor 1] (10 µM)
0: [1] | [2] | [4] | [5] | [6] | [7] | [8] | [9] | [10]
1: [3]

COc1cc2ncn(-c3cc(OCc4ccccc4S(C)(=O)=O)c(C#N)s3)c2cc1OC (10 µM)
0: [1] | [2] | [3] | [4] | [5] | [6] | [7] | [8] | [9] | [10]

N#Cc1ccc2ncnc(NC3CCC(N4CCOCC4)CC3)c2c1 (stereo not given) (10 µM)
0: [1] | [2] | [3] | [4] | [5] | [6] | [7] | [8] | [9] | [10]

COc1cc2c[n+](C)c3c4cc5c(cc4ccc3c2cc1OC)OCO5 [Nitidine (chloride)] (2 µM)
0: [1] | [2] | [3] | [4] | [5] | [6] | [7] | [8] | [9] | [10]

NCCN1CCN(C/C=C/C(=O)N2CCC[C@@H](n3nc(-c4ccc(Oc5ccccc5)cc4)c4c(N)ncnc43)C2)CC1 [Ibrutinib-MPEA] (10 µM)
0: [1] | [2] | [3] | [4] | [5] | [6] | [7] | [8] | [9] | [10]

CN1C(=O)C(Cc2c[nH]c3ccccc23)NC1=S (stereo not given) [Necrostatin-1] (10 µM)
0: [1] | [2] | [3] | [4] | [5] | [6] | [7] | [8] | [9] | [10]

C=C1C(=O)O[C@@H]2C[C@@]3(C)CCC[C@H](C)C3=C[C@H]12 [Alantolactone] (10 µM)
0: [1] | [2] | [3] | [4] | [5] | [6] | [7] | [8] | [9] | [10]

Cc1ccc(Oc2nc3cc(-c4ccc5c(ccn5C)c4)c(Cl)cc3[nH]2)cc1C(=O)O (10 µM)
0: [1] | [2] | [3] | [4] | [5] | [6] | [7] | [8] | [9] | [10]

Cn1c(=O)c(F)c(Nc2ccc(I)cc2F)c2c(=O)n(C[C@@H](O)CO)cnc21 (10 µM)
1: [10]
0: [1] | [2] | [3] | [4] | [5] | [6] | [7] | [8] | [9]

Part of the list above in order of molecular weight, largest number first.
COc1cc2ncn(-c3cc(OCc4ccccc4S(C)(=O)=O)c(C#N)s3)c2cc1OC (10 µM)
0: [1] | [2] | [3] | [4] | [5] | [6] | [7] | [8] | [9] | [10]

Cc1ccc(Oc2nc3cc(-c4ccc5c(ccn5C)c4)c(Cl)cc3[nH]2)cc1C(=O)O (10 µM)
0: [1] | [2] | [3] | [4] | [5] | [6] | [7] | [8] | [9] | [10]

COc1ccc(Cn2cc(C(=O)N=Nc3c(O)[nH]c4c(C)cccc34)nn2)cc1 [MARK4 inhibitor 1] (10 µM)
0: [1] | [2] | [4] | [5] | [6] | [7] | [8] | [9] | [10]
1: [3]

COc1cc2c[n+](C)c3c4cc5c(cc4ccc3c2cc1OC)OCO5 [Nitidine (chloride)] (2 µM)
0: [1] | [2] | [3] | [4] | [5] | [6] | [7] | [8] | [9] | [10]

N#Cc1ccc2ncnc(NC3CCC(N4CCOCC4)CC3)c2c1 (stereo not given) (10 µM)
0: [1] | [2] | [3] | [4] | [5] | [6] | [7] | [8] | [9] | [10]

CN1C(=O)C(Cc2c[nH]c3ccccc23)NC1=S (stereo not given) [Necrostatin-1] (10 µM)
0: [1] | [2] | [3] | [4] | [5] | [6] | [7] | [8] | [9] | [10]

C=C1C(=O)O[C@@H]2C[C@@]3(C)CCC[C@H](C)C3=C[C@H]12 [Alantolactone] (10 µM)
0: [1] | [2] | [3] | [4] | [5] | [6] | [7] | [8] | [9] | [10]

Next structures follow:

Cc1ccc2nc(NC(=O)CSc3nc4c(c(=O)n3-c3ccccc3)SCC4)sc2c1 (2 µM)
0: [1] | [2] | [3] | [4] | [5] | [6] | [7] | [8] | [9] | [10]

Cn1cc(-c2ccc(CNc3cc(-c4cnc5cc(OCCCN6CCCC6)ccn45)ncn3)cc2)cn1 (10 µM)
0: [1] | [2] | [3] | [4] | [5] | [6] | [7] | [8] | [9] | [10]

Cc1ccc(Nc2cc(-c3cccc(N4C(=O)c5ccccc5C4=O)c3)ncn2)cc1NS(C)(=O)=O (10 µM)
0: [1] | [2] | [3] | [4] | [5] | [6] | [7] | [8] | [9] | [10]

CCOc1cc(C(=O)N2CCC(N3CCN(C)CC3)CC2)ccc1Nc1ncc2c(n1)N(C1CCCC1)c1ccccc1C(=O)N2C (10 µM)
0: [1] | [2] | [3] | [4] | [5] | [6] | [7] | [8] | [9] | [10]
